In the supplement of paper PMC8866396:
± gives the standard deviation of the averaged measurements. The list shows a part of the results. Single values are uncertain here, since repeats match poorly.

system: IL-6-GFP PC-9GR; test: IL-6-GFP fluorescence relative to DMSO control (fraction of control); higher = more IL-6-GFP expression; settings: compound concentration: 10 uM; treatment time: 48 h
Experimental: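 IL-6-GFP-overexpressing PC-9 and PC-9GR EGFR-mutant lung cancer cells (3000 cells/well, 96-well) were treated for 48 h with each compound of the Selleck L2000 library at 10 uM. IL-6-GFP fluorescence was read on a high-content screening system, and viability by CCK-8 absorbance on a parallel plate set. Each value was normalised as compound well / DMSO control well; two independent replicates.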

SMILES	IL-6-GFP fluorescence
CCCC(=O)OC1(C(=O)CCl)C(C)CC2C3CCC4=CC(=O)C=CC4(C)C3(F)C(=O)CC21C (stereo not given) [clobetasone butyrate]	0.971 ± 0.26
CS(=O)(=O)c1ccc(C(=O)Nc2ccc(Cl)c(-c3ccccn3)c2)c(Cl)c1 [Vismodegib (GDC-0449)]	1.07 ± 0.013
N#Cc1ccc(C2CCCc3cncn32)cc1 (stereo not given) [Fadrozole]	1.16 ± 0.3
C=CC(=O)N1CCCC(n2nc(-c3ccc(Oc4ccccc4)cc3)c3c(N)ncnc32)C1 (stereo not given)	0.179 ± 0.17
CN1CCC(=C2c3ccccc3CCc3sccc32)CC1.O=C(O)CC(O)C(=O)O [Pizotifen Malate]	0.953 ± 0.11
CC(C)=CCCC(C)(OC1OC(CO)C(O)C(O)C1O)C1CCC2(C)C1C(O)CC1C3(C)CCC(O)C(C)(C)C3C(OC3OC(CO)C(O)C(O)C3O)CC12C (stereo not given) [Ginsenoside Rg1]	0.885 ± 0.014
Cc1nnc(C(=O)NC(C)(C)c2nc(C(=O)NCc3ccc(F)cc3)c([O-])c(=O)n2C)o1.[K+] [Raltegravir potassium]	1.07 ± 0.35
CC12C=CC(=O)C=C1CCC1C3CC(O)C(O)(C(=O)CO)C3(C)CC(O)C12F (stereo not given) [Triamcinolone]	0.673 ± 0.29
CC(C)(C#N)c1cc(Cn2cncn2)cc(C(C)(C)C#N)c1 [Anastrozole]	0.925 ± 0.02
O=C(O)COc1nn(Cc2ccccc2)c2ccccc12 [Bendazac]	0.807 ± 0.18
CCOc1ccc(Cc2cc(C3OC(CO)C(O)C(O)C3O)ccc2Cl)cc1 (stereo not given) [Dapagliflozin]	0.745 ± 0.31
Cc1nnc(C(=O)NC(C)(C)c2nc(C(=O)NCc3ccc(F)cc3)c(O)c(=O)n2C)o1 [Raltegravir (MK-0518)]	0.829 ± 0.017
CN1C(C(=O)Nc2ccccn2)=C(O)c2sc(Cl)cc2S1(=O)=O [Lornoxicam]	0.909 ± 0.15
Nc1nc(=S)c2[nH]cnc2[nH]1 [Thioguanine]	0.56 ± 0.39
O=C([O-])Cc1ccccc1Nc1c(Cl)cccc1Cl.[Na+] [Diclofenac Sodium]	0.735 ± 0.018
CC(CN1c2ccccc2Sc2ccccc21)N(C)C.Cl (stereo not given) [Promethazine HCl]	0.575 ± 0.068
CS(=O)(=O)O.Cc1ccc(NC(=O)c2ccc(CN3CCN(C)CC3)cc2)cc1Nc1nccc(-c2cccnc2)n1 [Imatinib Mesylate (STI571)]	0.853 ± 0.17
COc1cc2c(Oc3ccc4[nH]c(C)cc4c3F)ccnc2cc1OCC1(N)CC1.Cl.Cl [Anlotinib (AL3818) dihydrochloride]	0.946 ± 0.23
CC(Nc1ncnc2[nH]cnc12)c1cc2cccc(Cl)c2c(=O)n1-c1ccccc1 (stereo not given) [Duvelisib (IPI-145, INK1197)]	0.943 ± 0.075
COc1ccc2cc1Oc1ccc(cc1)CC1c3cc(c(OC)cc3CCN1C)Oc1c(OC)c(OC)cc3c1C(C2)N(C)CC3 (stereo not given) [Tetrandrine]	0.787 ± 0.031

SMILES	IL-6-GFP fluorescence
CNNCc1ccc(C(=O)NC(C)C)cc1.Cl [Procarbazine HCl]	1.37 ± 0.63
CC#CC(=O)N1CCCC1c1nc(-c2ccc(C(=O)Nc3ccccn3)cc2)c2c(N)nccn12 (stereo not given) [Acalabrutinib (ACP-196)]	1.61 ± 0.048
CC(C)C(=O)Nc1ccc([N+](=O)[O-])c(C(F)(F)F)c1 [Flutamide]	0.814 ± 0.11
COc1ccc2cc(CCC(C)=O)ccc2c1 [Nabumetone]	0.567 ± 0.45
Cc1cn(-c2cc(NC(=O)c3ccc(C)c(Nc4nccc(-c5cnccn5)n4)c3)cc(C(F)(F)F)c2)cn1 [Radotinib]	1 ± 0.15
CN1CCN(C(c2ccccc2)c2ccccc2)CC1.Cl.Cl [Cyclizine 2HCl]	0.671 ± 0.2
Cl.c1ccc(CN(CC2=NCCN2)c2ccccc2)cc1 [Antazoline HCl]	0.746 ± 0.3
CCC(c1ccc(O)cc1)C(CC)c1ccc(O)cc1 (stereo not given) [Hexestrol]	0.967 ± 0.05
CCS(=O)(=O)N1CC(CC#N)(n2cc(-c3ncnc4[nH]ccc34)cn2)C1.O=P(O)(O)O [Baricitinib phosphate]	0.824 ± 0.059
O=C(OCCOCCO)c1ccccc1Nc1cccc(C(F)(F)F)c1 [Etofenamate]	0.876 ± 0.051
COc1ccc2cc(C(C)C(=O)O)ccc2c1 (stereo not given) [Naproxen]	1.08 ± 0.32
Cn1c(=O)cc(N2CCCC(N)C2)n(Cc2ccccc2C#N)c1=O (stereo not given) [Alogliptin(SYK-322)benzoate]	0.911 ± 0.13
Cl.Nc1ccn(C2OC(CO)C(O)C2(F)F)c(=O)n1 (stereo not given) [Gemcitabine HCl]	0.764 ± 0.091
CC(C)(C)c1ccc(C(=O)CCCN2CCC(OC(c3ccccc3)c3ccccc3)CC2)cc1 [Ebastine]	0.8049 ± 0.0018
Nc1nc(Cl)nc2c1ncn2C1OC(CO)C(O)C1F (stereo not given) [Clofarabine]	1.052 ± 0.0093
C=CC(=O)Nc1cccc(Oc2nc(Nc3ccc(N4CCN(C)CC4)cc3)nc3ccsc23)c1	1.04 ± 0.038
NC(CO)(CO)CO [Trometamol]	0.692 ± 0.019
CCN(CC)CCNC(=O)c1c(C)[nH]c(/C=C2\C(=O)Nc3ccc(F)cc32)c1C.O=C(O)CC(O)C(=O)O [Sunitinib Malate]	1.57 ± 0.19
CC(N)c1ccc(C(=O)Nc2ccnc3[nH]ccc23)cc1.Cl.Cl (stereo not given)	1.08 ± 0.29
C=CC(=O)Nc1cc(Nc2nccc(-c3cn(C)c4ccccc34)n2)c(OC)cc1N(C)CCN(C)C.CS(=O)(=O)O [Osimertinib mesylate]	1.39 ± 0.23

Some of the entries so far, with each value named:
CC(C)(C)c1ccc(C(=O)CCCN2CCC(OC(c3ccccc3)c3ccccc3)CC2)cc1 [Ebastine]
  IL-6-GFP fluorescence: 0.8049 ± 0.0018
Nc1nc(Cl)nc2c1ncn2C1OC(CO)C(O)C1F (stereo not given) [Clofarabine]
  IL-6-GFP fluorescence: 1.052 ± 0.0093
